{"source": "PubChem BioAssay AID504467", "about": "(National Center for Advancing Translational Sciences (NCATS), 2011)", "note": "The campaign covered roughly 330,000 compounds. About 7,700 (2.3%) were called active. The shares of active, inactive and inconclusive entries below differ from those in the screen. Calls follow the shape of the dose curve; as a rule, active = well fitted inhibition curve with a large enough effect; inconclusive = small, poorly fitted or top-dose-only effect, or effect the other way; inactive = flat fitted curve, though single readings scatter. Potencies beside an inconclusive call are fits to weak or partial responses and may not hold up. Potency is read from the fitted curve at half-maximal effect.", "data": [{"assay": "qHTS screen for small molecules that inhibit ELG1-dependent DNA repair in human embryonic kidney (HEK293T) cells expressing luciferase-tagged ELG1; also: nearly all actives have a fitted effect of over 55% in size", "conditions": "HEK293T ELG1-luciferase reporter, luminescence, 16 h, DNA damage induced by 5-fluorouridine; series mostly up to 46.1 µM", "summary_of_the_method": "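Luminescence from the luciferase reporter, measured 30 min after ONE-Glo reagent at room temperature, was the read-out. Beforehand, 2,000 cells per well were exposed for 16 hr at 37 °C to 5-fluorouridine together with compound or vehicle.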", "values": [{"smiles": "CCNS(=O)(=O)c1ccc2nc(NC(=O)/C=C/c3cc(OC)c(OC)c(OC)c3)sc2c1", "Potency": "inconclusive: 1.64 µM [inhibitor, full curve]"}, {"smiles": "Cc1ccc(Cl)cc1N1CCN(C(=O)c2ccc(NS(=O)(=O)c3c(C)noc3C)cc2)CC1", "Potency": "inconclusive: 29.1 µM [inhibitor, single point]"}, {"smiles": "Cc1ccc(C(=O)N/N=C/c2ccc(N3CCOCC3)cc2)c(C)c1", "Potency": "inactive"}, {"smiles": "COc1ccc(-c2cc(C(=O)Nc3c(C)n(C)n(-c4ccccc4)c3=O)c3ccccc3n2)cc1", "Potency": "active: 16.4 µM"}, {"smiles": "Cc1ccc(/C=N/n2cnc3sc(-c4ccccc4)cc3c2=O)o1", "Potency": "inconclusive: 16.4 µM [activator, single point]"}, {"smiles": "Cc1c(CN2CCN(CC(C)C)C(CCO)C2)[nH]c2ccc(Cl)cc12", "note": "(centres undefined)", "Potency": "inactive"}, {"smiles": "O=S(=O)(Nc1nc(-c2sccc2Cl)cs1)c1cc(Cl)ccc1Cl", "Potency": "inactive"}, {"smiles": "O=C(Cc1coc2cc3c(cc12)CCC3)OCC(=O)N1CCCC1=O", "Potency": "inactive"}, {"smiles": "Cc1ccsc1/C=N/NC(=O)c1ccc2nc[nH]c2c1", "Potency": "inconclusive: 14.6 µM [activator, partial curve]"}, {"smiles": "Cc1onc(-c2ccccc2)c1C(=O)Nc1nnc(CC(C)(C)C)s1", "Potency": "inactive"}, {"smiles": "CCCCCCCC1CC(/C(C)=N/NC(N)=O)OC1=O", "note": "(centres undefined)", "Potency": "inactive"}, {"smiles": "NC(=O)c1cccnc1OCC(F)(F)F", "Potency": "inactive"}, {"smiles": "COc1ccc(C(=O)Nn2c(SCc3ccc([N+](=O)[O-])cc3)nc3ccccc3c2=O)cc1", "Potency": "inconclusive: 0.366 µM [activator, full curve, poor fit]"}, {"smiles": "COc1ccc(NC(=O)CC2C(=O)N(C)C(=S)N2CCc2ccccc2)cc1", "note": "(centres undefined)", "Potency": "inconclusive: 20.6 µM [inhibitor, partial curve]"}, {"smiles": "CCCOc1ccc(CNC(=O)c2ccc3nc(N4CCOCC4)sc3c2)cc1", "Potency": "inconclusive: 9.2 µM [activator, partial curve, poor fit]"}, {"smiles": "CCn1c(SCC(=O)Nc2ccc(S(N)(=O)=O)cc2)nnc1-c1cccc(OC)c1", "Potency": "inconclusive: 29.1 µM [inhibitor, single point]"}, {"smiles": "COc1ccc(C(=O)N/C(=C\\c2cccc3ccccc23)C(=O)NCCc2c[nH]c3ccccc23)cc1OC", "Potency": "inconclusive: 9.2 µM [inhibitor, partial curve]"}, {"smiles": "CC12CC3CC(C)(C1)CC(CN1CCOCC1)(C3)C2", "Potency": "inactive"}, {"smiles": "COc1ccc(C(=O)C2CCCN(C(=O)c3ccoc3C)C2)cc1F", "note": "(centres undefined)", "Potency": "inactive"}, {"smiles": "Cn1cc(Br)c(C(=O)Nc2sc3c(c2C#N)CCC3)n1", "Potency": "inconclusive: 6.51 µM [activator, full curve, poor fit]"}, {"smiles": "CCOC(=O)Cn1nnnc1CN(Cc1ccc(OC)cc1)Cc1cc2cc(C)cc(C)c2[nH]c1=O", "Potency": "inactive"}, {"smiles": "Cc1nc2nc(-c3cccnc3)[nH]n2c(=O)c1C", "Potency": "inconclusive: 14.6 µM [activator, partial curve, poor fit]"}, {"smiles": "COCCNC(=O)C(c1ccccc1C)N(C(=O)Cn1nnc2ccccc21)c1cccnc1", "note": "(centres undefined)", "Potency": "inactive"}, {"smiles": "CCN1CCN(c2nc(-c3ccccn3)nc3ccccc23)CC1", "Potency": "inconclusive: 25.9 µM [inhibitor, single point]"}, {"smiles": "Cc1ccccc1CSCCNC(=O)c1ccc(Cl)c(S(=O)(=O)N2CCOCC2)c1", "Potency": "active: 18.4 µM"}, {"smiles": "CCOC(=O)C1CCCN(C(=O)CN2C(=O)NC(C)(c3ccc4ccccc4c3)C2=O)C1", "note": "(centres undefined)", "Potency": "inactive"}, {"smiles": "CCC(=O)NC(c1cccs1)c1cc(Cl)c2ccccc2c1O", "note": "(centres undefined)", "Potency": "inconclusive: 18.3 µM [activator, single point]"}, {"smiles": "COCCn1c(SCC(=O)Nc2ccc3c(c2)OCCO3)nnc1-c1ccncc1", "Potency": "inactive"}, {"smiles": "Cc1csc(NC(=O)c2ccc(Cl)cc2[N+](=O)[O-])n1", "Potency": "inconclusive: 2.06 µM [activator, full curve]"}, {"smiles": "O=C(CCCn1c(=O)[nH]c2ccccc2c1=O)NCCSCc1ccccc1", "Potency": "inactive"}, {"smiles": "Cc1ccccc1CSCC(=O)N1CCN(c2ccccc2)CC1", "Potency": "inconclusive: 16.4 µM [activator, single point]"}, {"smiles": "COc1cc2[nH]c(=S)nc(NCc3cccnc3)c2cc1OC", "Potency": "inconclusive: 29.1 µM [inhibitor, single point]"}, {"smiles": "CCSc1ncc(Cl)c(C(=O)Nc2ccc(S(=O)(=O)Nc3ncccn3)cc2)n1", "Potency": "inconclusive: 25.9 µM [activator, partial curve, poor fit]"}, {"smiles": "COc1ccc(CNC(=O)COc2cc3c(c4oc(=O)cc(C)c24)CCC(C)(C)O3)cc1OC", "Potency": "inconclusive: 25.9 µM [inhibitor, single point]"}, {"smiles": "CCN(CC)S(=O)(=O)c1ccc(C(=O)NCc2n[nH]c(=S)n2Cc2ccccc2)cc1", "Potency": "inactive"}, {"smiles": "CN1CCN(/N=C/c2ccc(Br)cc2)CC1", "Potency": "inconclusive: 25.9 µM [activator, partial curve]"}, {"smiles": "COC(=O)C1CN(C(=O)COc2ccccc2)c2ccccc2O1", "note": "(centres undefined)", "Potency": "inactive"}, {"smiles": "COc1ccc(C)cc1NC(=O)C(c1ccccc1)N1CCN(CC(=O)N2CCOCC2)CC1", "note": "(centres undefined)", "Potency": "inconclusive: 4.11 µM [inhibitor, full curve, poor fit]"}, {"smiles": "COC(=O)COc1cccc(NC(=O)c2cccs2)c1", "Potency": "inactive"}, {"smiles": "Cc1nc2ccccn2c1-c1ccnc(=S)[nH]1", "Potency": "inactive"}, {"smiles": "Cc1nc(-c2ccccc2)[nH]c(=O)c1Oc1ccc(Cl)cc1Cl", "Potency": "active: 8.2 µM"}, {"smiles": "CCn1c(CN2CCN(C(c3ccccc3)c3ccccc3)CC2)nc2c1c(=O)n(C)c(=O)n2C", "Potency": "inconclusive: 36.6 µM [inhibitor, partial curve, poor fit]"}, {"smiles": "COc1ccc(-c2ccc(SCC(=O)Nc3cc(C)on3)nn2)cc1OC", "Potency": "inactive"}, {"smiles": "O=C1NC[C@H](c2ccccc2)OC(=O)[C@@H](Cc2ccc(F)cc2)CC/C=C/C[C@@H]1CC(=O)N(CCO)Cc1ccccc1", "Potency": "active: 23.1 µM"}, {"smiles": "CN(C)c1cccc(C(=O)OCC(=O)NC(=O)NCc2ccccc2)c1", "Potency": "inactive"}, {"smiles": "N#Cc1c(Oc2ccc3ccccc3c2)sc(C(=O)c2ccccc2)c1N", "Potency": "active: 11.6 µM"}, {"smiles": "Cc1ccc(-n2nc3c(c2NC(=O)c2cccs2)CS(=O)(=O)C3)c(C)c1", "Potency": "inactive"}, {"smiles": "O=C(COC(=O)c1ccccc1NS(=O)(=O)c1cc([N+](=O)[O-])ccc1Cl)c1ccccc1", "Potency": "inactive"}, {"smiles": "CCOc1ccc(-c2cc(CCCC(=O)NCCC(C)C)no2)cc1", "Potency": "inconclusive: 3.26 µM [activator, single point]"}, {"smiles": "CCCn1nc(C(=O)Nc2cccc(S(=O)(=O)N(C)c3ccccc3)c2)c2ccccc2c1=O", "Potency": "inconclusive: 25.9 µM [inhibitor, single point]"}, {"smiles": "O=C(NCCC1=CCCCC1)C1CCN(Cc2cnn(-c3ccccc3)c2-n2cccc2)CC1", "Potency": "inconclusive: 20.6 µM [inhibitor, single point]"}, {"smiles": "CCc1ccc(NC(=O)CSc2ccc(-c3cccnc3)nn2)cc1", "Potency": "inconclusive: 23.1 µM [inhibitor, partial curve, poor fit]"}, {"smiles": "N/C(=N\\OC(=O)c1ccc(Cl)cc1Cl)c1cccnc1", "Potency": "inconclusive: 6.51 µM [activator, partial curve]"}, {"smiles": "COc1ccc(NC(=O)CSc2nc3nc(C)cc(C)c3c(=O)[nH]2)cc1OC", "Potency": "inactive"}, {"smiles": "CC(=O)Nc1ccc2c3c(cccc13)C(=O)N(c1ccccc1)C2=O", "Potency": "inactive"}, {"smiles": "CCOC(=O)C(CN1CCCC1)c1ccccc1", "note": "(centres undefined)", "Potency": "inactive"}, {"smiles": "Cc1cc2nnc(SCC(=O)N3CCN(c4ccccc4)CC3)n2c(N)n1", "Potency": "inconclusive: 35.5 µM [activator, single point]"}, {"smiles": "Cc1onc(-c2ccccc2)c1-c1nnc(CN2CCN(S(=O)(=O)c3ccccc3)CC2)o1", "Potency": "inconclusive: 35.5 µM [inhibitor, single point]"}, {"smiles": "Cn1nc(-c2ccc(Cl)cc2)c2cc(C(=O)N3CCN(c4ccccn4)CC3)sc21", "Potency": "inconclusive: 2.59 µM [inhibitor, full curve]"}, {"smiles": "COc1cccc(/C=C2\\SC(=S)N(N3C(=O)CCCC3=O)C2=O)c1", "Potency": "inconclusive: 32.6 µM [activator, partial curve, poor fit]"}, {"smiles": "Cc1cc(C)c(C)c(S(=O)(=O)N2CCC(C(=O)NC3=NCCS3)CC2)c1C", "Potency": "inactive"}, {"smiles": "O=C(CN1C(=O)NC2(CCCCCC2)C1=O)c1cccs1", "Potency": "inactive"}, {"smiles": "COc1ccc(CCNC(=O)CN2C(=O)c3ccccc3S2(=O)=O)cc1OC", "Potency": "inactive"}, {"smiles": "COc1cc(NC(=O)/C=C/c2ccccc2)c(C(=O)O)cc1OC", "Potency": "inconclusive: 18.3 µM [activator, single point]"}, {"smiles": "COc1cc(OC)nc(S(C)(=O)=O)n1", "Potency": "inactive"}, {"smiles": "CC(=O)N1N=C(c2cccc(NS(C)(=O)=O)c2)CC1c1cccs1", "note": "(centres undefined)", "Potency": "inactive"}, {"smiles": "O=C(NNC1=Nc2ccccc2SC1)c1cccc([N+](=O)[O-])c1", "Potency": "active: 16.4 µM"}, {"smiles": "COc1ccc(S(=O)(=O)N2CCc3ccccc32)cc1C(=O)NCC(c1ccco1)N1CCCC1", "note": "(centres undefined)", "Potency": "inactive"}, {"smiles": "COC(=O)c1ccc2c(=O)n(CCCCCC(=O)O)c(=S)[nH]c2c1", "Potency": "inactive"}, {"smiles": "Cc1cccc(Nc2ccc(NCc3ccccc3)nn2)c1", "Potency": "inconclusive: 10.3 µM [activator, partial curve]"}, {"smiles": "COc1cccc(-c2nn(-c3ccccc3)cc2CN(C)C(C)c2ccon2)c1", "note": "(centres undefined)", "Potency": "inconclusive: 16.4 µM [inhibitor, single point]"}, {"smiles": "Cc1cc(C)c(NC(=O)CSCc2nc3sc(C)c(C)c3c(=O)[nH]2)c(Cl)c1", "Potency": "inconclusive: 29.1 µM [inhibitor, single point]"}, {"smiles": "Cc1nn(Cc2ccc(Cl)cc2)c2sc(C(=O)O)cc12", "Potency": "inconclusive: 1.03 µM [inhibitor, full curve, poor fit]"}, {"smiles": "C[C@]12c3[nH]c4ccccc4c3CCN1C(=O)C(CC(=O)NCCc1ccccn1)C[C@@H]2C(=O)N1CCCCC1", "note": "(some centres undefined)", "Potency": "inactive"}]}]}
